Results reported in PMC4686657.

By UniProt entry, the sequences of proteins in these tests, tags left out.
UniProt Q61501: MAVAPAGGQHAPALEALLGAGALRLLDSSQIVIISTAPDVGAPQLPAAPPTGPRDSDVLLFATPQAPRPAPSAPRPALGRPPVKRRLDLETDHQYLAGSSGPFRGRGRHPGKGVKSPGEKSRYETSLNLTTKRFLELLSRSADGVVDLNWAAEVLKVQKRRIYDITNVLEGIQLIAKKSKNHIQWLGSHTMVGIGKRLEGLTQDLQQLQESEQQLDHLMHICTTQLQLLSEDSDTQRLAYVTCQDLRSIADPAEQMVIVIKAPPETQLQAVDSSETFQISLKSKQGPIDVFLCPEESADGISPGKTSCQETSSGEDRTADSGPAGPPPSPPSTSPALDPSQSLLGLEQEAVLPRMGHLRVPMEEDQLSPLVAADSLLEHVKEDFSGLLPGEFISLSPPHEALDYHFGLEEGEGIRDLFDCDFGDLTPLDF
UniProt O35261: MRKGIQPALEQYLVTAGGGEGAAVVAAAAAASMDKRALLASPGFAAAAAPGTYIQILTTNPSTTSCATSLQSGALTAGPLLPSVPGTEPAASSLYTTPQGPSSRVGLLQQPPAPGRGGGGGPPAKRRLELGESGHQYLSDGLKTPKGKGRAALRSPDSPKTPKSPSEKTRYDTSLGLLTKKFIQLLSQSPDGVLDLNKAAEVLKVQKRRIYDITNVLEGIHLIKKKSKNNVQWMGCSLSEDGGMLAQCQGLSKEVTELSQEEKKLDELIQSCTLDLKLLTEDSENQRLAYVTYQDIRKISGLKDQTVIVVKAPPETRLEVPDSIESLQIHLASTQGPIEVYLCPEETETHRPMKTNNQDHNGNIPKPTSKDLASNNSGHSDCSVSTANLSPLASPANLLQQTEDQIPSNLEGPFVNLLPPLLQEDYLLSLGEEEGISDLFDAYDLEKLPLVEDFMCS
UniProt Q9WTM5: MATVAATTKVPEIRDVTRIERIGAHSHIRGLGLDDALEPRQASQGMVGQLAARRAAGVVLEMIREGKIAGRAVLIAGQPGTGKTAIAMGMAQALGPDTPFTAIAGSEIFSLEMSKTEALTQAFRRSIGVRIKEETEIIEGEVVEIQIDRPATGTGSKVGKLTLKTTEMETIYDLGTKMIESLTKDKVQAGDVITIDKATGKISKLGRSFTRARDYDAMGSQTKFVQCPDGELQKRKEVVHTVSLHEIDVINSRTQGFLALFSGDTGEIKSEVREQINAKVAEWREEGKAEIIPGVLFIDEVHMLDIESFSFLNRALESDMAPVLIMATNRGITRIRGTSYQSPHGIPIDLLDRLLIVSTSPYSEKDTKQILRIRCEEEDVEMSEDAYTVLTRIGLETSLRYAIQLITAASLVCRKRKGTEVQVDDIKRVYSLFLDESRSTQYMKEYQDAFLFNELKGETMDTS
UniProt P60122: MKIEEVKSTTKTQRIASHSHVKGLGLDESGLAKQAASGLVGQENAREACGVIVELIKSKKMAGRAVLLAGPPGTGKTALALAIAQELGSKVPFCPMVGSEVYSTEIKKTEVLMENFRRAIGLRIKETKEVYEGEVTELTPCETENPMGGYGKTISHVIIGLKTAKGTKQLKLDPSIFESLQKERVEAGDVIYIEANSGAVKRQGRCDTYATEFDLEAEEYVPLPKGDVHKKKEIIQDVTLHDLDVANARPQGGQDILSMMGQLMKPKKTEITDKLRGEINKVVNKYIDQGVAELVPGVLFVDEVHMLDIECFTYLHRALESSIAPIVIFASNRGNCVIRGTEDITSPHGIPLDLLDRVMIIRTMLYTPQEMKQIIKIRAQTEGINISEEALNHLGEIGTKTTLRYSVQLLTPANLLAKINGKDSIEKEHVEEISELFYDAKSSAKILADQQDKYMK

B1: Dp1 (protein, UniProt Q08639 1-410)
chain: MAKDASLIEANGELKVFIDQNLSPGKGVVSLVAVHPSTVNTLGKQLLPKTFGQSNVNITQQVVIGTPQRPAASNTIVVGSPHTPNTHFVSQNQTSDSSPWSAGKRNRKGEKNGKGLRHFSMKVCEKVQRKGTTSYNEVADELVAEFSAADNHILPNESAYDQKNIRRRVYDALNVLMAMNIISKEKKEIKWIGLPTNSAQECQNLEVERQRRLERIKQKQSQLQELILQQIAFKNLVQRNRQAEQQARRPPPPNSVIHLPFIIVNTSRKTVIDCSISNDKFEYLFNFDNTFEIHDDIEVLKRMGMACGLESGNCSAEDLKVARSLVPKALEPYVTEMAQGSIGGVFVTTTGSTSNGTRLSASDLSNGADGMLATSSNGSQYSGSRVETPVSYVGEDDDDDDDFNENDEED

Columns and labels:
[1] = biological target: E2f1 (mouse (endogenous in TKO HCC cells)) (UniProt Q61501); test: affinity purification with mass spectrometry; endogenous E2f1 and E2f3 immunoprecipitated from TKO HCC cell lysates (HEPES lysis buffer, Protein A Sepharose, 4 °C); SDS-PAGE slices, trypsin, LC-MS/MS; n=3
[2] = biological target: E2f3 (mouse (endogenous in TKO HCC cells)) (UniProt O35261); test: as above

Molecule | binding [1] | binding [2]
Reptin (from UniProt Q9WTM5 1-463) | binds | no binding
Pontin (from UniProt P60122 1-456) | binds | no binding
B1 | binds | binds

These are yes or no findings as the source states them, for the method shown. In cells and extracts the contact can be indirect. A yes stands for co-enrichment or nearness to the bait. Other partners may have been found. For part of these data: A no says only that the protein was not detected with the bait.
